Experimental data reported in US11795151B2, “Benzotriazole compound” (MIYOSHI OIL & FAT CO., LTD., priority 2017, dated 2023).

Legend:
[1] = Ultraviolet-visible absorbance of spin-coated copolymer films; assay type: physicochemical; details: film thickness 1 to 10 μm, ultraviolet-visible absorption spectrum
[2] = Evaluation of reactivity (1): copolymerization with methyl methacrylate, reaction rate by NMR; details: copolymerization with methyl methacrylate at 90 to 96° C.
[3] = Reactivity in various monomers (2): transparency of polymer copolymerized at maximum solubility; assay type: physicochemical; set-up: key: ∘: Clear with no cloudiness; Δ: Some cloudiness observed, but clear; x: Poor transparency due to cloudiness observed; details: Vinyl acetate, compound at maximum solubility concentration

Row | Compound | Yellowing inhibition and long wavelength absorption of copolymer film [1] | Reaction rate ([2]; 1 h) [%] | Reaction rate ([2]; 5 h) [%] | Transparency of polymer [3] | Reaction rate ([2]; 10 h) [%]
1 | C=CC(=O)OCCCCCCSc1ccc2nn(-c3cc(C)cc(C(C)(C)C)c3O)nc2c1 [Compound 1] | superior to Compounds 11 and 12 in terms of yellowing inhibition and long wavelength absorption | 20.0 | 100.0 | Δ | 
2 | C=C(C)C(=O)OCCSc1ccc2nn(-c3cc(C)cc(C(C)(C)C)c3O)nc2c1 [Compound 2] |  | 50.6 | 97.7 | Δ | 
3 | C=C(C)C(=O)OCCCSc1ccc2nn(-c3cc(C)cc(C(C)(C)C)c3O)nc2c1 [Compound 3] |  | 60.5 | 98.6 | Δ | 
4 | C=C(C)C(=O)OCCCCCCSc1ccc2nn(-c3cc(C)cc(C(C)(C)C)c3O)nc2c1 [Compound 4] | superior to Compounds 11 and 12 in terms of yellowing inhibition and long wavelength absorption | 61.0 | 98.6 |  | 
5 | C=C(C)C(=O)Oc1ccc(Sc2ccc3nn(-c4cc(C)cc(C(C)(C)C)c4O)nc3c2)cc1 [Compound 5] |  | 22.0 | 98.0 | Δ | 
6 | C=C(C)C(=O)OCCCCCCOc1ccc(Sc2ccc3nn(-c4cc(C)cc(C(C)(C)C)c4O)nc3c2)cc1 [Compound 6] |  | 78.7 | 98.3 | Δ | 
7 | C=CCSc1ccc2nn(-c3cc(C)cc(C(C)(C)C)c3O)nc2c1 [Compound 10, reference compound] |  |  |  |  | 5.0
8 | C=C(C)C(=O)OCCc1ccc(O)c(-n2nc3ccccc3n2)c1 [Compound 11, reference compound] |  | 22.3 | 47.3 | Δ | 
